Results reported in patent US20130237478A1, “COMPOSITIONS AND METHODS FOR TREATMENT OF PERIPHERAL VASCULAR DISEASE” (TARIX PHARMACEUTICALS LTD., priority 2012, published 2013).
At least one peptide structure holds a part that was inferred or is arguable (an end, a ring closure or a residue).

Columns and labels:
hind limb ischemia [1] = test: Macroscopic assessment of ischemic severity (necrosis grades, limb amputation) in mouse hind limb ischemia model; assay type: in vivo, Balb/c mice; settings: Example 1
hind limb ischemia [2] = test: Semi-quantitative assessment of limb function in mouse hind limb ischemia model; assay type: in vivo, Balb/c mice; settings: Example 1, 500 μg/kg SC daily
From the text: (§1) A stable hind limb ischemia model has been described previously and is generally characterized by uniform ischemic damage useful for examining the effect of various therapies (Goto, et al. Tokai J Exp Clin Med, 31(3):128 2006; Kang Y, et al. PLoS One. 2009; 4(1):e4275)). The hind limb ischemia model in mice used in this example involves two ligations of the proximal end of the femoral artery and its dissection between the two ligatures. The surgery causes obstruction of the blood flow and subsequently leads to severe ischemic damage (Goto, et al.; Kang, et al.). In this experiment, healthy adult female Balb/c mice were used. Hind limb ischemia was induced in mice using protocols previously described. […]
An Angiotensin (1-7) polypeptide composition (TXA127) and vehicle control (DPBS) were supplied as ready to use solutions and were stored at 4° C. until use. […]
Semi-quantitative assessment of impaired use of the ischemic limb was performed once a week post-surgery using the scale shown in Table 6 (Stabile et al, Circulation 108(2):205 2003). […]
(§2) An Angiotensin (1-7) polypeptide composition (PanCyte) and vehicle control (DPBS) were supplied as ready to use solutions and were stored at 4° C. until use. […]
Semi-quantitative assessment of impaired use of the ischemic limb was performed once a week post-surgery using the scale shown in Table 6 above. […]

[3] = test system: Transient middle cerebral artery occlusion (tMCAO); test: Stepping test (forelimb akinesia) after tMCAO stroke; assay type: in vivo, rats; settings: all experimental conditions (Table 22); by Day 28 post-surgery
Method: (§3) For the purposes of this example, Transient middle cerebral artery occlusion (tMCAO) procedure Day is defined as “Day 1” in this study. On the day of surgery anesthesia were induced with 4% isoflurane in a mixture of 70% N2O and 30% O2 and maintained with 1.5-2% isoflurane.
The tMCAO procedures were performed according to the method described R. Schmid-Elsaesser et al. Briefly, the right CCA (Common Carotid Artery) was exposed through a midline neck incision and carefully dissected free from surrounding nerves and fascia—from its bifurcation to the base of the skull. The occipital artery branches of the ECA (External Carotid Artery) were then isolated, and these branches were dissected and coagulated. The ECA was dissected further distally and coagulated along with the terminal lingual and maxillary artery branches, which was then divided. […]
Animals were tested for forelimb akinesia in a stepping test (ST). The animal was held with its hind limbs fixed with one hand and the forelimb not to be monitored with the other, while the unrestrained fore-paw touches the table. The number of adjusting steps are counted while the animal is moved sideways along the table surface (85 cm in approximately five seconds), in the forehand & backhand direction for both forelimbs. […]

[4] = test system: Transient middle cerebral artery occlusion (tMCAO); test: Body swing test after tMCAO stroke; assay type: in vivo, rats; settings: for body swing performance: by Day 21
Method: as §3
The tMCAO procedures were performed according to the method described R. Schmid-Elsaesser et al. Briefly, the right CCA (Common Carotid Artery) was exposed through a midline neck incision and carefully dissected free from surrounding nerves and fascia—from its bifurcation to the base of the skull. The occipital artery branches of the ECA (External Carotid Artery) were then isolated, and these branches were dissected and coagulated. The ECA was dissected further distally and coagulated along with the terminal lingual and maxillary artery branches, which was then divided. The ICA (Internal Carotid Artery) was isolated and carefully separated from the adjacent vagus nerve, and the pterygopalatine artery was ligated close to its origin with a 5-0 nylon suture (SMI, Belgium). Next, a 4-0 silk suture was tied loosely around the mobilized ECA stump, and a 4 cm length of 4-0 monofilament nylon suture (the tip of the suture was blunted by using a flame, and the suture was coated with polylysine, prior to insertion) was inserted through the proximal ECA into the ICA and thence into the circle of Willis, effectively occluding the MCA. The surgical wound was closed and the animals were returned to their cages to recover from anesthesia. One hour and a half after occlusion rats were re-anesthetized, the monofilament was withdrawn to allow reperfusion, the surgical wound was closed and rats were returned to their cages.
Animals were subjected to a modified Modified Neurological Rating Scale (mNRS) at 24 hours post reperfusion. Only animals with an overall score of ≧10 were included in this study. Animals were allocated into the test groups, according to the mNRS results on day 2, in order to have similar distribution of rats performance between groups. Starting on day 2, 24 hours post-surgery, animals in groups 4, 5 and 7 were implanted subcutaneously with an osmotic Alzet pump and treated with either 500 μg/kg TXA127, 500 μg/kg PanCyte, or 50 μg/kg Linear PanCyte. Animals in groups 2, 3 and 6 received 500 μg/kg or 1,000 μg/kg TXA127 or 500 μg/kg PanCyte, administered subcutaneously via daily injection. Animals in group 1 were treated with a daily subcutaneous injection of a PBS (vehicle).
Each rat was held approximately one inch from the base of its tail. It was then elevated to an inch above a surface of a table. The rat was held in the vertical axis, defined as no more than 10° to either the left or the right side. A swing was recorded whenever the rat moves its head out of the vertical axis to either side. Before attempting another swing, the rat must return to the vertical position for the next swing to be counted. Twenty (20) total swings were counted. A normal rat typically has an equal number of swings to either side. Following focal ischemia, the rat tends to swing to the contralateral side (left side in this case). Body swing scores are expressed as a percentage of […] over total swings.

hind limb ischemia [5] = test: Blood flow by non contact laser Doppler in mouse hind limb ischemia model; assay type: in vivo, Balb/c mice; settings: Example 1
From the text: as §1
Blood flow in legs from both sides of the animals was measured with a non contact laser Doppler before surgery and on days: 1, 7, 15, 21, 28, 35, 42 and 49 post operation. Blood flow measurements were expressed as the ratio of the flow in the ischemic limb to that in the normal limb. […]
as §2
An Angiotensin (1-7) polypeptide composition (PanCyte, cyclized Asp^1-Arg^2-Val^3-Ser^4-Ile^5-His^6-Cys (SEQ ID NO:22)) and vehicle control (DPBS) were supplied as ready to use solutions and were stored at 4° C. until use. […]

CC[C@H](C)[C@H](NC(=O)[C@H](Cc1ccc(O)cc1)NC(=O)[C@@H](NC(=O)[C@H](CCCNC(=N)N)NC(=O)[C@@H](N)CC(=O)O)C(C)C)C(=O)N[C@@H](Cc1c[nH]cn1)C(=O)N1CCC[C@H]1C(=O)O [TXA127, Asp^1-Arg^2-Val^3-Tyr^4-Ile^5-His^6-Pro^7 (SEQ ID NO: 1)]
ischemic severity (morphological grades for necrotic area) vs control (hind limb ischemia [1]; 500 μg/kg SC daily): trend evident to decreasing severity
limb amputation (hind limb ischemia [1]; 500 μg/kg SC daily (group 2F), vehicle group 60%): 48%
day on which most limb amputation occurs (hind limb ischemia [1]; 500 μg/kg SC daily, after induction of hind limb ischemia): 35 days
limb function vs vehicle, last measure carried forward analysis (hind limb ischemia [2]; day 49, p<0.01): statistically significant difference
limb function vs vehicle (graded functional scale) (hind limb ischemia [2]; up to day 49, differences not statistically significant): improvement in limb function
stepping test performance vs vehicle [3]: significantly improved the performance
body swing performance vs vehicle ([4]; 500 μg/kg SC daily): did not show significant results until Day 35
body swing performance ([4]; 500 μg/kg by Alzet pump): showed improvement
body swing performance vs vehicle ([4]; 500 μg/kg by Alzet pump, by Day 28): significant improvement in performance
body swing performance ([4]; 1,000 μg/kg SC daily): showed improvement
body swing performance vs vehicle ([4]; 1,000 μg/kg SC daily, by Day 28): significant improvement in performance
blood flow restored (hind limb ischemia [5]; 500 μg/kg SC daily): 71 % of its normal values
improvement in blood flow vs vehicle (ratio ischemic limb / normal limb) (hind limb ischemia [5]; 500 μg/kg SC daily (group 2F), from day 35 up to day 49, p<0.001 on day 35): statistically significant improvement in blood flow
